# The list shows a part of the results.
# How the values were obtained:
# Experiment in all cases: glycan array binding signal (z-score within array); higher = stronger binding
# Settings in all cases: glycan notation: IUPAC condensed, linker removed; mutation: D224N
# [1] = molecular target: Man(a1-2)Man(a1-3)[Man(a1-2)Man(a1-6)]Man
# Method in brief: (§1)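 Glycan array data were curated from 3228 arrays in the Consortium for Functional Glycomics database and kept only where the protein sequence was available. Glycan names were converted to IUPAC-condensed notation, and columns mapping to the same glycan were averaged. The binding signal is a within-array Z-score, averaged across arrays of the same protein sequence at different concentrations or buffers and across linkers. Negative Z-scores can be read as non-binding.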
# [2] = molecular target: Man(a1-2)Man(a1-3)[Man(a1-2)Man(a1-6)]Man(a1-6)[Man(a1-2)Man(a1-2)Man(a1-3)]Man
# Method in brief: as §1
# [3] = molecular target: Man(a1-2)Man(a1-3)[Man(a1-2)Man(a1-6)]Man(a1-6)[Man(a1-2)Man(a1-2)Man(a1-3)]Man(b1-4)GlcNAc(b1-4)GlcNAc
# Method in brief: as §1
# [4] = molecular target: Man(a1-2)Man(a1-3)[Man(a1-6)]Man(a1-6)[Man(a1-2)Man(a1-3)]Man(b1-4)GlcNAc(b1-4)GlcNAc
# Method in brief: as §1
# [5] = molecular target: Man(a1-2)Man(a1-6)[Man(a1-3)]Man(a1-6)[Man(a1-2)Man(a1-2)Man(a1-3)]Man
# Method in brief: as §1
# [6] = molecular target: Man(a1-2)Man(a1-6)[Man(a1-3)]Man(a1-6)[Man(a1-2)Man(a1-2)Man(a1-3)]Man(b1-4)GlcNAc(b1-4)GlcNAc
# Method in brief: as §1
# Man(a1-3)[Man(a1-6)]Man = molecular target: Man(a1-3)[Man(a1-6)]Man
# Method in brief: as §1
# [7] = molecular target: Man(a1-3)[Man(a1-6)]Man(a1-6)[Man(a1-2)Man(a1-3)]Man(b1-4)GlcNAc(b1-4)GlcNAc
# Method in brief: as §1
# [8] = molecular target: Man(a1-3)[Man(a1-6)]Man(a1-6)[Man(a1-3)]Man
# Method in brief: as §1
# [9] = molecular target: Man(a1-3)[Man(a1-6)]Man(a1-6)[Man(a1-3)]Man(b1-4)GlcNAc(b1-4)GlcNAc
# Method in brief: as §1
# [10] = molecular target: Man(a1-3)[Man(a1-6)]Man(b1-4)GlcNAc(b1-4)GlcNAc
# Method in brief: as §1
# [11] = molecular target: Man(a1-3)[Man(a1-6)]Man(b1-4)GlcNAc(b1-4)[Fuc(a1-6)]GlcNAc
# Method in brief: as §1
# Man(a1-6)Man = molecular target: Man(a1-6)Man
# Method in brief: as §1
# Man(b1-4)GlcNAc = molecular target: Man(b1-4)GlcNAc
# Method in brief: as §1
# MurNAc(b1-4)GlcNAc = molecular target: MurNAc(b1-4)GlcNAc
# Method in brief: as §1
# Neu5Ac(a2-3)Gal = molecular target: Neu5Ac(a2-3)Gal
# Method in brief: as §1
# [12] = molecular target: Neu5Ac(a2-3)Gal(b1-3)GalNAc
# Method in brief: as §1
# [13] = molecular target: Neu5Ac(a2-3)Gal(b1-3)GalNAc(b1-3)Gal(a1-4)Gal(b1-4)Glc
# Method in brief: as §1
# [14] = molecular target: Neu5Ac(a2-3)Gal(b1-3)GalNAc(b1-4)Gal(b1-4)Glc
# Method in brief: as §1
# [15] = molecular target: Neu5Ac(a2-3)Gal(b1-3)GalNAc(b1-4)[Neu5Ac(a2-3)]Gal(b1-4)Glc
# Method in brief: as §1
# [16] = molecular target: Neu5Ac(a2-3)Gal(b1-3)GalNAc(b1-4)[Neu5Ac(a2-8)Neu5Ac(a2-3)]Gal(b1-4)Glc
# Method in brief: as §1
# [17] = molecular target: Neu5Ac(a2-3)Gal(b1-3)GalNAc6S
# Method in brief: as §1
# [18] = molecular target: Neu5Ac(a2-3)Gal(b1-3)GlcNAc
# Method in brief: as §1
# [19] = molecular target: Neu5Ac(a2-3)Gal(b1-3)GlcNAc(b1-2)Man
# Method in brief: as §1
# [20] = molecular target: Neu5Ac(a2-3)Gal(b1-3)GlcNAc(b1-2)Man(a1-3)[GlcNAc(b1-4)][Neu5Ac(a2-3)Gal(b1-3)GlcNAc(b1-2)Man(a1-6)]Man(b1-4)GlcNAc(b1-4)GlcNAc
# Method in brief: as §1
# [21] = molecular target: Neu5Ac(a2-3)Gal(b1-3)GlcNAc(b1-2)Man(a1-3)[Neu5Ac(a2-3)Gal(b1-3)GlcNAc(b1-2)Man(a1-6)]Man(b1-4)GlcNAc(b1-4)GlcNAc
# Method in brief: as §1
# [22] = molecular target: Neu5Ac(a2-3)Gal(b1-3)GlcNAc(b1-2)[Neu5Ac(a2-3)Gal(b1-3)GlcNAc(b1-4)]Man(a1-6)[Neu5Ac(a2-3)Gal(b1-3)GlcNAc(b1-2)Man(a1-3)]Man(b1-4)GlcNAc(b1-4)GlcNAc
# Method in brief: as §1
# [23] = molecular target: Neu5Ac(a2-3)Gal(b1-3)GlcNAc(b1-3)Gal(b1-3)GlcNAc
# Method in brief: as §1
# [24] = molecular target: Neu5Ac(a2-3)Gal(b1-3)GlcNAc(b1-3)Gal(b1-4)GlcNAc
# Method in brief: as §1
# [25] = molecular target: Neu5Ac(a2-3)Gal(b1-3)GlcNAc(b1-3)GalNAc
# Method in brief: as §1
# [26] = molecular target: Neu5Ac(a2-3)Gal(b1-3)GlcNAc(b1-6)GalNAc
# Method in brief: as §1
# [27] = molecular target: Neu5Ac(a2-3)Gal(b1-3)GlcNAc6S
# Method in brief: as §1
# [28] = molecular target: Neu5Ac(a2-3)Gal(b1-3)[Fuc(a1-4)]GlcNAc
# Method in brief: as §1
# [29] = molecular target: Neu5Ac(a2-3)Gal(b1-3)[Fuc(a1-4)]GlcNAc(b1-3)Gal(b1-3)[Fuc(a1-4)]GlcNAc
# Method in brief: as §1
# [30] = molecular target: Neu5Ac(a2-3)Gal(b1-3)[Fuc(a1-4)]GlcNAc(b1-3)Gal(b1-4)[Fuc(a1-3)]GlcNAc
# Method in brief: as §1
# [31] = molecular target: Neu5Ac(a2-3)Gal(b1-3)[GlcNAc(b1-6)]GalNAc
# Method in brief: as §1
# [32] = molecular target: Neu5Ac(a2-3)Gal(b1-3)[Neu5Ac(a2-6)]GalNAc
# Method in brief: as §1
binder,measurement,setting,value
a L Fucosidase (Thermotoga maritima) (protein) MASMKPRYKPDWESLREHTVPKWFDKAKFGIFIHWGIYSVPGWATPTGELGKVPMDAWFFQNPYAEWYENSLRIKESPTWEYHVKTYGENFEYEKFADLFTAEKWDPQEWADLFKKAGAKYVIPTTKHHDGFCLWGTKYTDFNSVKRGPKRDLVGDLAKAVREAGLRFGVYYSGGLDWRFTTEPIRYPEDLSYIRPNTYEYADYAYKQVMELVDLYLPDVLWNNMGWPEKGKEDLKYLFAYYYNKHPEGSVNDRWGVPHWDFKTAEYHVNYPGDLPGYKWEFTRGIGLSFGYNRNEGPEHMLSVEQLVYTLVDVVSKGGNLLLNVGPKGDGTIPDLQKERLLGLGEWLRKYGDAIYGTSVWERCCAKTEDGTEIRFTRKCNRIFVIFLGIPTGEKIVIEDLNLSAGTVRHFLTGERLSFKNVGKNLEITVPKKLLETDSITLVLEAVEE,glycan array binding signal (z-score),[1],0.714
same,glycan array binding signal (z-score),[2],-0.006
same,glycan array binding signal (z-score),[3],-0.817
same,glycan array binding signal (z-score),[4],-0.333
same,glycan array binding signal (z-score),[5],-0.688
same,glycan array binding signal (z-score),[6],-0.728
same,glycan array binding signal (z-score),Man(a1-3)[Man(a1-6)]Man,0.332
same,glycan array binding signal (z-score),[7],0.752
same,glycan array binding signal (z-score),[8],0.223
same,glycan array binding signal (z-score),[9],0.156
same,glycan array binding signal (z-score),[10],-0.176
same,glycan array binding signal (z-score),[11],-0.563
same,glycan array binding signal (z-score),Man(a1-6)Man,0.901
same,glycan array binding signal (z-score),Man(b1-4)GlcNAc,1.15
same,glycan array binding signal (z-score),MurNAc(b1-4)GlcNAc,0.223
same,glycan array binding signal (z-score),Neu5Ac(a2-3)Gal,-0.808
same,glycan array binding signal (z-score),[12],-0.389
same,glycan array binding signal (z-score),[13],-0.696
same,glycan array binding signal (z-score),[14],-1.2
same,glycan array binding signal (z-score),[15],-0.418
same,glycan array binding signal (z-score),[16],0.139
same,glycan array binding signal (z-score),[17],-0.204
same,glycan array binding signal (z-score),[18],-0.496
same,glycan array binding signal (z-score),[19],-0.105
same,glycan array binding signal (z-score),[20],0.126
same,glycan array binding signal (z-score),[21],-0.202
same,glycan array binding signal (z-score),[22],1.03
same,glycan array binding signal (z-score),[23],-0.874
same,glycan array binding signal (z-score),[24],0.415
same,glycan array binding signal (z-score),[25],0.912
same,glycan array binding signal (z-score),[26],-0.019
same,glycan array binding signal (z-score),[27],-0.867
same,glycan array binding signal (z-score),[28],0.956
same,glycan array binding signal (z-score),[29],-0.851
same,glycan array binding signal (z-score),[30],1.27
same,glycan array binding signal (z-score),[31],0.287
same,glycan array binding signal (z-score),[32],-0.253

# Rewritten as tab-separated lines: entries from further up
binder	measurement	setting	value
a L Fucosidase (Thermotoga maritima) (protein) MASMKPRYKPDWESLREHTVPKWFDKAKFGIFIHWGIYSVPGWATPTGELGKVPMDAWFFQNPYAEWYENSLRIKESPTWEYHVKTYGENFEYEKFADLFTAEKWDPQEWADLFKKAGAKYVIPTTKHHDGFCLWGTKYTDFNSVKRGPKRDLVGDLAKAVREAGLRFGVYYSGGLDWRFTTEPIRYPEDLSYIRPNTYEYADYAYKQVMELVDLYLPDVLWNNMGWPEKGKEDLKYLFAYYYNKHPEGSVNDRWGVPHWDFKTAEYHVNYPGDLPGYKWEFTRGIGLSFGYNRNEGPEHMLSVEQLVYTLVDVVSKGGNLLLNVGPKGDGTIPDLQKERLLGLGEWLRKYGDAIYGTSVWERCCAKTEDGTEIRFTRKCNRIFVIFLGIPTGEKIVIEDLNLSAGTVRHFLTGERLSFKNVGKNLEITVPKKLLETDSITLVLEAVEE	glycan array binding signal (z-score)	[25]	0.912
same	glycan array binding signal (z-score)	[27]	-0.867
